These results are taken from PubChem BioAssay AID662 (National Center for Advancing Translational Sciences (NCATS), 2007).

This is one part of the list. These are further read-outs of the screen, such as a control signal, another cell line or another target. No call is given for them. Most of these compounds were active or inconclusive in the main read-out, so they are no random draw. Potencies come from curve fits of mixed quality, noted in brackets.

This test in a line: Cell signaling CRE-BLA (Fsk stim). The following applies: CHO CRE-bla reporter (cAMP response element driving beta-lactamase), forskolin EC10, beta-lactamase ratio; measured here: 460 nm blue channel. The gist of the method: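 CHO CRE-bla cells, overnight plating in Opti-MEM with 0.5% dialyzed FBS; cpd titration + EC10 NKH 477, 3 h 37 °C; CCF4 2 h RT; ex 405/em 460 vs 530 ratio → %Activity, AC50.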
In the case of `CN(C)S(=O)(=O)NC(c1ccccc1)c1ccccc1`, the AC50 is 2 µM [falling, partial curve].
The same measure for `COc1cc2ncnc(Nc3cccc(Br)c3)c2cc1OC`: 1.26 µM [rising, full curve]; for `CCOC(=O)c1nn(-c2ccccc2)c(C#N)c1NC(=O)c1nn(CC)cc1Br`: 1.58 µM [rising, partial curve]; for `Cc1ccc(N(Cc2ccccc2)Cc2ccccc2)cc1`: 5.01 µM [rising, single point].
The same measure for `CC(=O)c1sc(Nc2nc3ccc(F)cc3s2)nc1C`: 10 µM [rising, partial curve].
For `CCOCCn1c(N(C)Cc2ccccc2)nc2c1c(=O)[nH]c(=O)n2C`, the half-maximal activity concentration (AC50) was 12.6 µM [rising, single point].
Under `O=C(CSc1nnc(Cc2cccs2)n1Cc1ccco1)Nc1cc(Cl)cc(Cl)c1` stands 7.94 µM [falling, partial curve, poor fit]; under `Cc1cc(NC(=O)CSc2ccc3nnc(-c4cccs4)n3n2)no1`, 10 µM [rising, partial curve].
With `O=S(=O)(Nc1ccc(Cl)c(C(F)(F)F)c1)c1cnc[nH]1`, the half-maximal activity concentration (AC50) is 12.6 µM [falling, partial curve].
As for `COc1cccc(Cn2c(=O)c(-c3ccc(Cl)cc3)nc3cncnc32)c1`, the AC50 is 10 µM [rising, partial curve].
In the case of `CN(C)c1ccc(-c2nccc(NCc3cccs3)n2)cc1`, the AC50 is 10 µM [rising, partial curve].
Take `Cc1ccc(Cn2nnc3c(=O)[nH]c(C(=O)NCc4ccco4)nc32)cc1`: the concentration at half-maximal activity (AC50) was 12.6 µM [rising, single point].
`Cc1cc(C)nc(-n2nc(C)cc2NC(=O)c2ccc(Br)o2)n1`: the concentration at half-maximal activity (AC50) is 1.26 µM [rising, full curve].
The same measure for `COc1cc(OC)c2c(C)cc(=O)oc2c1`: 10 µM [rising, partial curve].
Turning to `CC(C)N(Cc1nc(-c2ccc(Cl)cc2)no1)C(=O)CCCN1C(=O)c2ccccc2C1=O`, the half-maximal activity concentration (AC50) is 10 µM [falling, single point].
On to `COC(=O)c1ccccc1NC(=O)C1CCN(S(=O)(=O)c2cc(C)ccc2OC)CC1`, for which the concentration at half-maximal activity (AC50) is 15.8 µM [rising, partial curve].
For the compound `Cn1c(=O)c2c(-c3ccccc3)n(N3CCOCC3)cc2n(C)c1=O`, the concentration at half-maximal activity (AC50) is 1.26 µM [rising, partial curve].
In the case of `CCn1c2ccccc2c2nnc(NCCCO)nc21`, the AC50 is 3.98 µM [rising, single point].
As to `CCOC(=O)c1sc(NC(=O)c2ccc3ncsc3c2)nc1C`, the half-maximal activity concentration (AC50) was 10 µM [rising, partial curve].

As a reminder, the AC50 is the concentration giving half of the maximal activity seen.
